Assay [1] has as its target T1, mouse PK2 receptor (mouse, UniProt Q8K458 1-381).
T1 construct: G-protein coupled receptor; also called PKR2; mouse PKR2
The experiment in a line: binding assay with radioiodinated ligand (FIG. 11 legend).

Amino acid sequences for entries named in this document (tags omitted). A change or cut given only in a name is not applied to a line headed by its entry.
UniProt Q8K458: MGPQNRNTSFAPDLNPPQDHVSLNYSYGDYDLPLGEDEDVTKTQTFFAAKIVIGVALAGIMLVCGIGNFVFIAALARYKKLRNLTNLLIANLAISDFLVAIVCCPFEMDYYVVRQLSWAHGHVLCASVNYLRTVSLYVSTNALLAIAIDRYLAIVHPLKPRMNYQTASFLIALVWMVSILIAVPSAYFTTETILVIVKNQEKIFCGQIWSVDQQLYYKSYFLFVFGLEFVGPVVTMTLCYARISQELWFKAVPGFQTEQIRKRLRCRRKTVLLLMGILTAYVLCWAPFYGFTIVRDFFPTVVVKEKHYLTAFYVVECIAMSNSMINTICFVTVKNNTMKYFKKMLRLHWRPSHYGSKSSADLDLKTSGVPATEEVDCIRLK

Assay [2] concerns the target T1, mouse PK2 receptor. The experiment in a line: calcium mobilization assay (FIG. 12 legend). (Calcium flux is commonly read through the fluorescence of an indicator in the cells.)

Results are given in words; binding and its absence hold for the method and conditions named. Some entries that bind do so weakly or less than the wild type.

B1: 125I-human PK2 (iodinated human prokineticin 2) (ligand)
chain: AVITGACDKDSQCGGGMCCAVSIWVKSIRICTPMGKLGDSCHPLTRKVPFFGRRMHHTCPCLPGLACLRTSFNRFICLAQK
modifications: radioiodinated with 125I (residue not stated for this assay)
notes: also called iodinated PK2
Take B1: the binding result with mouse PK2 receptor [1] is “binds”.

B2: human PK2 (prokineticin 2) (ligand)
chain: AVITGACDKDSQCGGGMCCAVSIWVKSIRICTPMGKLGDSCHPLTRKVPFFGRRMHHTCPCLPGLACLRTSFNRFICLAQK
In the case of B2, the binding entry with mouse PK2 receptor [2] was “binds”.

These data come from patent publication US20060172935A1 (published 2006).
